According to patent US20200325237A1:
No constants are given. Whether binding was seen depends on the method and setting. Some binding calls cover weakened binding; strength is not graded here.

Target: recombinant cyno transferrin receptor protein (Sino Biological 90253-C07H) (cyno)
Experiment: ELISA on plate-coated recombinant cyno TfR1

binding: binds
B1: hTfR1.IgG2 mAb (chimeric human IgG2 anti-hTfR1 antibody) (antibody, V domains shown)
VH: QVQLQQPGAELVKPGASVKLSCKASGYTFTNYWMHWVKQRPGQGLEWIGEINPINGRSNYGERFKTKATLTVDKSSSTAYMQLSSLTSEDSAVYYCARGTRAMHYWGQGTSVTVSS
VL: DIQMTQSPASLSVSVGETVTITCRTSENIYNNLAWYQQKQGKSPQLLVYAATNLADGVPSRFSGSGSGTQYSLKINSLQSEDFGNYYCQHFWGTPLTFGAGTKLELKR
